Laboratory results: article PMC7923384
Results are given in words; binding and its absence hold for the method and conditions named. In cells and extracts the contact can be indirect. For some of these results: Binding can be weak; no strength is given.

How the values were obtained:
Experiment in all cases: co-IP; tagged proteins (Flag-ZMYND8 and its truncation mutants, Myc-EZH2 WT or mutants) expressed by transfection in 293T cells, some with V5-CDK1 co-expressed; immunoprecipitation from lysate, Western blot; both orientations done
Flag-ZMYND8 ΔC1 = target: Flag-ZMYND8 ΔC1
Flag-ZMYND8 ΔC2 = target: Flag-ZMYND8 ΔC2
Flag-ZMYND8 ΔC3 = target: Flag-ZMYND8 ΔC3
Flag-ZMYND8 ΔPBP = target: Flag-ZMYND8 ΔPBP

- binding (Flag-ZMYND8 ΔC1): no binding
- binding (Flag-ZMYND8 ΔC2): binds
- binding (Flag-ZMYND8 ΔC3): binds
- binding (Flag-ZMYND8 ΔPBP): binds
B1: FOXM1 in 293T cells (protein, UniProt Q08050 1-763)
chain: MKTSPRRPLILKRRRLPLPVQNAPSETSEEEPKRSPAQQESNQAEASKEVAESNSCKFPAGIKIINHPTMPNTQVVAIPNNANIHSIITALTAKGKESGSSGPNKFILISCGGAPTQPPGLRPQTQTSYDAKRTEVTLETLGPKPAARDVNLPRPPGALCEQKRETCADGEAAGCTINNSLSNIQWLRKMSSDGLGSRSIKQEMEEKENCHLEQRQVKVEEPSRPSASWQNSVSERPPYSYMAMIQFAINSTERKRMTLKDIYTWIEDHFPYFKHIAKPGWKNSIRHNLSLHDMFVRETSANGKVSFWTIHPSANRYLTLDQVFKPLDPGSPQLPEHLESQQKRPNPELRRNMTIKTELPLGARRKMKPLLPRVSSYLVPIQFPVNQSLVLQPSVKVPLPLAASLMSSELARHSKRVRIAPKVLLAEEGIAPLSSAGPGKEEKLLFGEGFSPLLPVQTIKEEEIQPGEEMPHLARPIKVESPPLEEWPSPAPSFKEESSHSWEDSSQSPTPRPKKSYSGLRSPTRCVSEMLVIQHRERRERSRSRRKQHLLPPCVDEPELLFSEGPSTSRWAAELPFPADSSDPASQLSYSQEVGGPFKTPIKETLPISSTPSKSVLPRTPESWRLTPPAKVGGLDFSPVQTSQGASDPLPDPLGLMDLSTTPLQSAPPLESPQRLLSSEPLDLISVPFGNSSPSDIDVPKPGSPEPQVSGLAANRSLTEGLVLDTMNDSLSKILLDISFPGLDEDPLGPDNINWSQFIPELQ
